Laboratory results: PubChem BioAssay AID1159578 (Peter MacCallum Cancer Centre, 2015)
Shown is an unselected part of about 18,000 reagents. In the full data, about 1,030 (5.7%) got an active call. 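Inactive calls also include pools with fewer than 3300 nuclei, whose migration was not assessed.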 Raw values vary from plate to plate and are shown uncorrected. Unmarked entries are inactive. Not all columns of the deposit are shown.

- Screen: 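Knock-downs that alter how fast lymphatic endothelial cells migrate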 (primary screen)
- Cell system: human lymphatic endothelial cells
- Knock-down reagent: siRNA pool against human genes, 40 nM
- Duration: 48 h after transfection
- Measurement: 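High-content imaging of dye-stained cells in a scratch assay measures filled wound area and nuclei per well; duplicate means given as ratio to mock and robust z-score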
- Scale: migration robust z-score: higher = faster migration into the scratch; nuclei per well: higher = more cells in the well
- Active means: 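Pools averaging fewer than 3300 nuclei are never called; remaining pools count as changed when migration robust z lies outside -2 to 2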
- Meaning of the calls: active = migration changed; inactive = no migration change, or too few cells

SPIN2A (GeneID 54466) [SID255358024] | migration robust z-score: -0.77; nuclei per well, duplicate mean: 5341
ACER1 (GeneID 125981) [SID255362673] | migration robust z-score: -0.16; nuclei per well, duplicate mean: 4796
COX11 (GeneID 1353) [SID255349051] | migration robust z-score: 0.02; nuclei per well, duplicate mean: 6120
ACTR3B (GeneID 57180) [SID255359323] | migration robust z-score: 2.5 (active); nuclei per well, duplicate mean: 5944
ATP5PF (GeneID 522) [SID255348470] | migration robust z-score: -1.14; nuclei per well, duplicate mean: 5630
MED12 (GeneID 9968) [SID255354706] | migration robust z-score: 0.8; nuclei per well, duplicate mean: 6298
FEZF2 (GeneID 55079) [SID255358393] | migration robust z-score: -2.26 (active); nuclei per well, duplicate mean: 4159

Active calls, among the entries above:
ACTR3B (GeneID 57180) [SID255359323] | migration robust z-score: 2.5 (active); nuclei per well, duplicate mean: 5944
FEZF2 (GeneID 55079) [SID255358393] | migration robust z-score: -2.26 (active); nuclei per well, duplicate mean: 4159

The listing continues:
COX8A (GeneID 1351) [SID255349049] | migration robust z-score: -0.96; nuclei per well, duplicate mean: 5822
TNN (GeneID 63923) [SID255359774] | migration robust z-score: 0.1; nuclei per well, duplicate mean: 6306
OR51A4 (GeneID 401666) [SID255365802] | migration robust z-score: 0.08; nuclei per well, duplicate mean: 5004
MRPS23 (GeneID 51649) [SID255357832] | migration robust z-score: 1.01; nuclei per well, duplicate mean: 5708
FAM27E5 (GeneID 284123) [SID255364744] | migration robust z-score: 0.84; nuclei per well, duplicate mean: 6320
ZNF175 (GeneID 7728) [SID255353257] | migration robust z-score: 0.62; nuclei per well, duplicate mean: 6705
GGCX (GeneID 2677) [SID255349878] | migration robust z-score: -0.31; nuclei per well, duplicate mean: 6174
PKN2 (GeneID 5586) [SID255351803] | migration robust z-score: -3.04 (active); nuclei per well, duplicate mean: 3634
B4GALT1 (GeneID 2683) [SID255349880] | migration robust z-score: 0.05; nuclei per well, duplicate mean: 5856
DAXX (GeneID 1616) [SID255349241] | migration robust z-score: 0.16; nuclei per well, duplicate mean: 6344
SF3A1 (GeneID 10291) [SID255354972] | migration robust z-score: -0.4; nuclei per well, duplicate mean: 4564
AGO2 (GeneID 27161) [SID255356955] | migration robust z-score: -0.46; nuclei per well, duplicate mean: 6433
PAK6-AS1 (GeneID 644809) [SID255366098] | migration robust z-score: 0.79; nuclei per well, duplicate mean: 5391
MTMR2 (GeneID 8898) [SID255353905] | migration robust z-score: -0.7; nuclei per well, duplicate mean: 5141
